# Screening data

By UniProt entry, the sequences of proteins in these tests, tags left out.
UniProt Q03181, whole entry, target on record: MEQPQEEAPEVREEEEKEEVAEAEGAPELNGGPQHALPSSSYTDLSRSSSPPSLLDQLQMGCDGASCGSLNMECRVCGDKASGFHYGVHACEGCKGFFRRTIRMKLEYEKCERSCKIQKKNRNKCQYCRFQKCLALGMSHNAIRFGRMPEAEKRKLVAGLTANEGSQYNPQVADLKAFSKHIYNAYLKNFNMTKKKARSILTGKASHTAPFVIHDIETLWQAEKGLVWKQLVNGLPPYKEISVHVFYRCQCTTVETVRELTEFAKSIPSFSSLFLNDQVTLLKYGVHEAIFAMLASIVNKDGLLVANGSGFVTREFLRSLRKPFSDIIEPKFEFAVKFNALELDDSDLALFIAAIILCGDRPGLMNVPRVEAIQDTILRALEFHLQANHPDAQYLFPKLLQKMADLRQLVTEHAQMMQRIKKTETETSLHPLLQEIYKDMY

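HEK293T cells with a PPAR-delta-driven beta-lactamase reporter, co-stimulated by an agonist, screened for antagonists through the FRET signal ratio after 18 hours.
Compounds were tested as a titration series; assay dose columns run from about 0.00043 to 54,000 µM.
The value is a fitted half-maximal potency (AC50), and a lower number means a more potent compound.
Calls come from curve class and fitted potency: actives score 40 to 100, inactives score 0, and inconclusives get a low nonzero score.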

Values are in µM.
Every entry below has the call inconclusive.
Only part of the assay is shown, chiefly results filed as inconclusive.
A potency from a partial, single-point or poor curve is only a rough figure.
Some entries filed as inconclusive have a full curve.
The first word of each remark tells which way the curve ran; it can be opposite to the aim of the assay.
Activity scores are not listed here.

compound,potency (µM),curve as filed
C=CC(=O)OCC(CO)(COC(=O)C=C)COC(=O)C=C,25.12,"side channel, rising, partial curve"
CC(C)(C)c1cc(O)ccc1O,39.81,"side channel, rising, partial curve, poor fit"
ClC1=C(Cl)C(Cl)(Cl)C(Cl)=C1Cl,44.67,"side channel, rising, partial curve"
N[C@@H](Cc1cc(I)c(Oc2cc(I)c(O)c(I)c2)c(I)c1)C(=O)O,44.67,"fluorescent, side channel"
CCOC(=O)c1ccccc1N,50.12,"side channel, rising, single point"
ClC(Cl)Cl,1.778,"inhibitor, partial curve, poor fit"
Cn1cnc([N+](=O)[O-])c1Sc1ncnc2nc[nH]c12,39.81,"fluorescent, side channel, single point"
CC(C)CC(C)Nc1ccc(Nc2ccccc2)cc1 (centres undefined),44.67,"side channel, rising, partial curve"
O=C(OCC1CO1)C1CCCCC1C(=O)OCC1CO1 (centres undefined),39.81,"side channel, rising, partial curve"
Cc1cc(=O)oc2cc(O)cc(O)c12,44.67,"fluorescent, side channel, partial curve, poor fit"
ClC(Cl)=C(c1ccc(Cl)cc1)c1ccc(Cl)cc1,50.12,"fluorescent, side channel, single point"
Cc1ccccc1N,1.995,"inhibitor, full curve, poor fit"
O=C(O)c1cc(N=Nc2ccc([N+](=O)[O-])cc2)ccc1O,39.81,"side channel, rising, partial curve"
Oc1c(I)cc(Cl)c2cccnc12,39.81,"side channel, rising, partial curve"
O=C1OC(O)C(C(Cl)Cl)=C1Cl (centres undefined),28.18,"inhibitor, full curve, poor fit"
CCSC(=O)Cl,50.12,"side channel, rising, single point"
Nc1ccc([N+](=O)[O-])c(N)c1,0.1,"inhibitor, full curve, poor fit"
CC(C)CCC[C@@H](C)[C@H]1CC[C@H]2[C@@H]3CC=C4C[C@@H](O)CC[C@]4(C)[C@H]3CC[C@]12C,79.43,"activator, single point"
O=C(O)c1cc[c]([Hg][Cl])cc1,50.12,"falling, single point"
CCOP(=S)(OCC)OC(Cl)C(Cl)(Cl)Cl (centres undefined),17.78,"fluorescent, side channel, partial curve, poor fit"
O=C(O)CCCCC(=O)O,0.0447,"inhibitor, full curve, poor fit"
CC1(C)CCC(C)(C)c2cc(C(=O)Nc3ccc(C(=O)O)cc3)ccc21,7.943,"activator, full curve, poor fit"
C[C@@H]1C[C@H]2[C@@H]3CCC4=CC(=O)C=C[C@]4(C)[C@@]3(F)[C@@H](O)C[C@]2(C)[C@@]1(O)C(=O)CO,0.0178,"activator, full curve, poor fit"
Cc1cc2nc3c(=O)[nH]c(=O)nc-3n(C[C@H](O)[C@H](O)[C@H](O)CO)c2cc1C,39.81,"fluorescent, side channel, partial curve"
Cc1ccc2c(c1N)C(=O)c1ccccc1C2=O,2.512,"activator, full curve, poor fit"
CC(COc1ccccc1)N(CCCl)Cc1ccccc1 (centres undefined),14.13,"activator, partial curve, poor fit"
C=CCCC#N,28.18,"activator, single point"
CCN(CC)N=O,0.0562,"inhibitor, full curve, poor fit"
CC/C(=C(\c1ccc(O)cc1)c1ccc(OCCN(C)C)cc1)c1ccccc1,39.81,"cytotoxic, side channel, partial curve, poor fit"
COc1cc(/C=C/C(=O)CC(=O)/C=C/c2ccc(O)c(OC)c2)ccc1O,44.67,"fluorescent, side channel"
C[C@H](CCC(=O)O)[C@H]1CC[C@H]2[C@@H]3CC[C@@H]4C[C@H](O)CC[C@]4(C)[C@H]3C[C@H](O)[C@]12C,39.81,"fluorescent, side channel, single point"
O=[N+]([O-])c1cccc(C(F)(F)F)c1,0.0005,"inhibitor, full curve, poor fit"
CCCCCNCCCCC,50.12,"side channel, rising, single point"
O=[N+]([O-])c1ccc2nc[nH]c2c1,0.0224,"inhibitor, full curve, poor fit"
CCCN(CCC)c1c([N+](=O)[O-])cc(C(F)(F)F)cc1[N+](=O)[O-],0.631,"inhibitor, partial curve, poor fit"
c1ccc2c(c1)ccc1cc3c(ccc4ccccc43)cc12,8.912,"activator, full curve, poor fit"
Nc1cccc2c(N)cccc12,0.7943,"activator, full curve, poor fit"
N#C/C(N)=C(/N)C#N,50.12,"side channel, rising, single point"
COC(=O)Nc1nc2ccccc2[nH]1,7.08,"inhibitor, full curve"

Once more, the final 4:

* c1ccc2c(c1)ccc1cc3c(ccc4ccccc43)cc12 | potency 8.912 µM (activator, full curve, poor fit)
* Nc1cccc2c(N)cccc12 | potency 0.7943 µM (activator, full curve, poor fit)
* N#C/C(N)=C(/N)C#N | potency 50.12 µM (side channel, rising, single point)
* COC(=O)Nc1nc2ccccc2[nH]1 | potency 7.08 µM (inhibitor, full curve)

From PubChem BioAssay record AID588535 (NCATS, 2011).